Laboratory results: the supplement of paper PMC12823440, “Inhibitors supercharge kinase turnover through native proteolytic circuits” (Nature, 2025)
Where a name gives a salt, the structure may show the parent alone. This is one part of the list. The calls rarely recur for the same compound in another form.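 Kinases, fused to nanoluciferase, were expressed in K562 cells; luminescence was measured every 4 h from 2 to 18 h as percent of control (DMSO = 100%, positive control = 0%). A time point is decreased if signal falls significantly (2 sigma). Hits were called by the authors by a rule that is not shown; the count of time points alone does not decide it.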

Sequences of proteins named here, by UniProt entry; tags and fusion partners are left off. A change or cut given only in a name is not applied to a line headed by its entry.
UniProt P07949, whole entry, looked up: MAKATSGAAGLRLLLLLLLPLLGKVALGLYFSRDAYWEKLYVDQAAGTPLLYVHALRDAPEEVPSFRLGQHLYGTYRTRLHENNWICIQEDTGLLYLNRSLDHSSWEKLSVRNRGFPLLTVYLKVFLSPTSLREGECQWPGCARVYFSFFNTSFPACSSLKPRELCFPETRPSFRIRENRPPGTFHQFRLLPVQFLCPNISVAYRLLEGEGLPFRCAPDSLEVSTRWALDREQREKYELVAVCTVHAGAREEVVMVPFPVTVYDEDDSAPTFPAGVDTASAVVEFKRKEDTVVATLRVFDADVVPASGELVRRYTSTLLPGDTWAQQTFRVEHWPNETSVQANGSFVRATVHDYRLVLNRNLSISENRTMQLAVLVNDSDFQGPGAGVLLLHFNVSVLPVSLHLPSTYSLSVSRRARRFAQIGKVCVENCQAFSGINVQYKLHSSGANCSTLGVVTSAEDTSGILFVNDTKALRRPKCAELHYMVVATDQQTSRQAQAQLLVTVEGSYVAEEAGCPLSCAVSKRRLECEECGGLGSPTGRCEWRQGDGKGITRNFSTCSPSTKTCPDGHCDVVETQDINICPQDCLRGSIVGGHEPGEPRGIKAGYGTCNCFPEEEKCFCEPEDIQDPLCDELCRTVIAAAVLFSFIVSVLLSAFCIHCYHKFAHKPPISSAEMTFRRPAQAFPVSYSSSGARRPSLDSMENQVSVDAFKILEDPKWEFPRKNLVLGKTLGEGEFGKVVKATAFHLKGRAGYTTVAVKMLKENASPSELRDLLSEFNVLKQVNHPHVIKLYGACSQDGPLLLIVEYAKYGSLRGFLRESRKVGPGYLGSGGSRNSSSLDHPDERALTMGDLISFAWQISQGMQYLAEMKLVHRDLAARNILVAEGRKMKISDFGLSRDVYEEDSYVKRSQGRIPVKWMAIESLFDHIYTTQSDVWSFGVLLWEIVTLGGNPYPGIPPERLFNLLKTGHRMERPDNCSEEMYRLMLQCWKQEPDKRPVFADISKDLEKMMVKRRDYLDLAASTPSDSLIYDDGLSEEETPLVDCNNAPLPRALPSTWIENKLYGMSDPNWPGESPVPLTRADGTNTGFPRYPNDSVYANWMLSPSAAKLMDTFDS
UniProt P07949, whole entry M918T, looked up: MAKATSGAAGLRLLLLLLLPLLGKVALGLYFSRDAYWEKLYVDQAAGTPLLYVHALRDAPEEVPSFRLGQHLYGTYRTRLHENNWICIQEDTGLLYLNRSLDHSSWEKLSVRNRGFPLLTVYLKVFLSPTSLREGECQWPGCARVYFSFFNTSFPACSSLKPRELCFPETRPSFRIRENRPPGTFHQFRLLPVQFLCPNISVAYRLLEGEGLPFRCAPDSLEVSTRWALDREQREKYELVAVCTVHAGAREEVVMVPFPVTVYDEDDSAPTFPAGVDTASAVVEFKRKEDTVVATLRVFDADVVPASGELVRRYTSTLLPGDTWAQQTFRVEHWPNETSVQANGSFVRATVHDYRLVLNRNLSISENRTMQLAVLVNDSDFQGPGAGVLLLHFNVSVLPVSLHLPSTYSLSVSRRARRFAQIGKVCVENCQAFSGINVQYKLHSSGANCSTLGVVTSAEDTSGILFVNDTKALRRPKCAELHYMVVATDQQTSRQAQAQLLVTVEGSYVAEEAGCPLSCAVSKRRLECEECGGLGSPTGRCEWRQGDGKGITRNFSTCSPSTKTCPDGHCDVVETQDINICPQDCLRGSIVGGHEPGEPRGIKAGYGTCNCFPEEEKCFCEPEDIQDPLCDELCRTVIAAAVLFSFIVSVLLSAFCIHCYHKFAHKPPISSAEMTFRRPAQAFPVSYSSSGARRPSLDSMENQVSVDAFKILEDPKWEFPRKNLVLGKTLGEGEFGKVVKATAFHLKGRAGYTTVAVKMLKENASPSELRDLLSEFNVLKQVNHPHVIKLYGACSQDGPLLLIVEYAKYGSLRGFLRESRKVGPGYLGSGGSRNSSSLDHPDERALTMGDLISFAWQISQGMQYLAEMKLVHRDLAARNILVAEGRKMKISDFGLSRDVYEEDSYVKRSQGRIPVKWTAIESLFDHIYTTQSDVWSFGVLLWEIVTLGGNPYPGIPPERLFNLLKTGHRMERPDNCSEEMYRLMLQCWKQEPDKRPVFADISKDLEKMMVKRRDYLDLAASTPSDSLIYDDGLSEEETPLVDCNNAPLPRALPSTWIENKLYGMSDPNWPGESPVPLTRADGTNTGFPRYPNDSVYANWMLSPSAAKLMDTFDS
UniProt Q13546: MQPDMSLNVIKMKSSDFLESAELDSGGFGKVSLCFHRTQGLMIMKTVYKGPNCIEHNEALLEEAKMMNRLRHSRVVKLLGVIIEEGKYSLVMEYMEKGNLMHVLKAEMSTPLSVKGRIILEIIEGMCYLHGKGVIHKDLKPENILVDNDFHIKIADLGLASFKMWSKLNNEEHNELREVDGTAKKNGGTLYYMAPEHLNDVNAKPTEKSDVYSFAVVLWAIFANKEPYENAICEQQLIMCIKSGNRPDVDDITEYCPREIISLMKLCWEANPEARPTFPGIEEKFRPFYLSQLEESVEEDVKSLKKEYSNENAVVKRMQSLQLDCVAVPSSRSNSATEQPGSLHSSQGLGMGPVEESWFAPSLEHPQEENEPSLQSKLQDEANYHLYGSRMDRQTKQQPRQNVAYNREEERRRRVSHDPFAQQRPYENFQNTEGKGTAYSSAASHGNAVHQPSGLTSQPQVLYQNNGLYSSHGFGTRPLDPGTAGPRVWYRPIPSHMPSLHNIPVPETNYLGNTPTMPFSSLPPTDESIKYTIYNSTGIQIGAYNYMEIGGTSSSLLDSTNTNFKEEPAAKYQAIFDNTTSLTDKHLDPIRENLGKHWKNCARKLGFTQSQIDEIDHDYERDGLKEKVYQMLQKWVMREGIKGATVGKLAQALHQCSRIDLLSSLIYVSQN
UniProt Q15418, whole entry: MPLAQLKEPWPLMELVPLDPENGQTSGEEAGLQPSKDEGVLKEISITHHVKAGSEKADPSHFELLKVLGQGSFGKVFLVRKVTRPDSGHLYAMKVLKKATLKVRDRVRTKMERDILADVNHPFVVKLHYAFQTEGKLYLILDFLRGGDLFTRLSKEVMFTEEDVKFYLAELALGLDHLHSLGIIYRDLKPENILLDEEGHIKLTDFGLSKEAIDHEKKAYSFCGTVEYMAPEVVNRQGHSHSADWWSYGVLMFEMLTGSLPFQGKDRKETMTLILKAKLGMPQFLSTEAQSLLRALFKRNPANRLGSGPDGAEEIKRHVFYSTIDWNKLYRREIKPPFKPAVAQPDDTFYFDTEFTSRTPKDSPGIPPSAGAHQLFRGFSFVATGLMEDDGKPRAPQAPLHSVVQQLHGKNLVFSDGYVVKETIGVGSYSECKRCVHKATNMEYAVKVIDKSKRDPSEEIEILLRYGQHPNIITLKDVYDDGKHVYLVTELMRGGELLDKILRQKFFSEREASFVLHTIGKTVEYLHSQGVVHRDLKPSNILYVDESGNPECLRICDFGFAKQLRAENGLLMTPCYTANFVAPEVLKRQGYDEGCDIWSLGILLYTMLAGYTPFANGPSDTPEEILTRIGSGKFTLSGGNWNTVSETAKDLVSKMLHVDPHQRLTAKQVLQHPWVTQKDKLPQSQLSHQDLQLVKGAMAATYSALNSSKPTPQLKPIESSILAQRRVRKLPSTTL
UniProt Q9NYA1, whole entry: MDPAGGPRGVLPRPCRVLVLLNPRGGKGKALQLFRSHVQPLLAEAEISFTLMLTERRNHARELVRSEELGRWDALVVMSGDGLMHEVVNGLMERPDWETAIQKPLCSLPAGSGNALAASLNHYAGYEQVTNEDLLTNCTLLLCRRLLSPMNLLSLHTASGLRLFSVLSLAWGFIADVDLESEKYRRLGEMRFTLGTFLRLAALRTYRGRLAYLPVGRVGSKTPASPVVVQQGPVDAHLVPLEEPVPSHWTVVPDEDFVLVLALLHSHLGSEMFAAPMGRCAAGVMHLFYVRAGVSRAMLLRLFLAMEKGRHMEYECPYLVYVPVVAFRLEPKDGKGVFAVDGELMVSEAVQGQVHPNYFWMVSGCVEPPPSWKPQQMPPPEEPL
UniProt Q9Y6E0: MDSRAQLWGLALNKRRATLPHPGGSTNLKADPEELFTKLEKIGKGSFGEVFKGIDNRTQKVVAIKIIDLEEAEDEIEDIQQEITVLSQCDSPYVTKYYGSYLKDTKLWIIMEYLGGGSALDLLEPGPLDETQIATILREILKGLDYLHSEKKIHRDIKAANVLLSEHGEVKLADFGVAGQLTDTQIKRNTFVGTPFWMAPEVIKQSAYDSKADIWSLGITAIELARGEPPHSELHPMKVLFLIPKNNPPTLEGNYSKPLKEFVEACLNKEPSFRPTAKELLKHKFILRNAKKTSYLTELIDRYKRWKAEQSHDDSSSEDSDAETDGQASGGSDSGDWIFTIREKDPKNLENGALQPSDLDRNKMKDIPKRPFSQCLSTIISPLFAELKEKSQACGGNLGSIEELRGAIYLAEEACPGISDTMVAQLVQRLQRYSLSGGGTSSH
UniProt Q15208: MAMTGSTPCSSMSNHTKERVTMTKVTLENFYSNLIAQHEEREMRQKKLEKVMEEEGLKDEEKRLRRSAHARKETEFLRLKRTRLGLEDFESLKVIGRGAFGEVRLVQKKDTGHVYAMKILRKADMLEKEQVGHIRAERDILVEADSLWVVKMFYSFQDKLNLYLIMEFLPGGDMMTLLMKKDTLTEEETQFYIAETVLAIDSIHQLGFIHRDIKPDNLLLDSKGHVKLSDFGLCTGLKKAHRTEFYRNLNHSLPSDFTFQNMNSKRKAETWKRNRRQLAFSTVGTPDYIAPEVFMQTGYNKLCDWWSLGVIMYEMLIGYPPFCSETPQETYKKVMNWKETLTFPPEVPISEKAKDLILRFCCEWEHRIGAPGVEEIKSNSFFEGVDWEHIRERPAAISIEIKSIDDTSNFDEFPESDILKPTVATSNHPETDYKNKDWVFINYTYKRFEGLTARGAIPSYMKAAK
UniProt P29597: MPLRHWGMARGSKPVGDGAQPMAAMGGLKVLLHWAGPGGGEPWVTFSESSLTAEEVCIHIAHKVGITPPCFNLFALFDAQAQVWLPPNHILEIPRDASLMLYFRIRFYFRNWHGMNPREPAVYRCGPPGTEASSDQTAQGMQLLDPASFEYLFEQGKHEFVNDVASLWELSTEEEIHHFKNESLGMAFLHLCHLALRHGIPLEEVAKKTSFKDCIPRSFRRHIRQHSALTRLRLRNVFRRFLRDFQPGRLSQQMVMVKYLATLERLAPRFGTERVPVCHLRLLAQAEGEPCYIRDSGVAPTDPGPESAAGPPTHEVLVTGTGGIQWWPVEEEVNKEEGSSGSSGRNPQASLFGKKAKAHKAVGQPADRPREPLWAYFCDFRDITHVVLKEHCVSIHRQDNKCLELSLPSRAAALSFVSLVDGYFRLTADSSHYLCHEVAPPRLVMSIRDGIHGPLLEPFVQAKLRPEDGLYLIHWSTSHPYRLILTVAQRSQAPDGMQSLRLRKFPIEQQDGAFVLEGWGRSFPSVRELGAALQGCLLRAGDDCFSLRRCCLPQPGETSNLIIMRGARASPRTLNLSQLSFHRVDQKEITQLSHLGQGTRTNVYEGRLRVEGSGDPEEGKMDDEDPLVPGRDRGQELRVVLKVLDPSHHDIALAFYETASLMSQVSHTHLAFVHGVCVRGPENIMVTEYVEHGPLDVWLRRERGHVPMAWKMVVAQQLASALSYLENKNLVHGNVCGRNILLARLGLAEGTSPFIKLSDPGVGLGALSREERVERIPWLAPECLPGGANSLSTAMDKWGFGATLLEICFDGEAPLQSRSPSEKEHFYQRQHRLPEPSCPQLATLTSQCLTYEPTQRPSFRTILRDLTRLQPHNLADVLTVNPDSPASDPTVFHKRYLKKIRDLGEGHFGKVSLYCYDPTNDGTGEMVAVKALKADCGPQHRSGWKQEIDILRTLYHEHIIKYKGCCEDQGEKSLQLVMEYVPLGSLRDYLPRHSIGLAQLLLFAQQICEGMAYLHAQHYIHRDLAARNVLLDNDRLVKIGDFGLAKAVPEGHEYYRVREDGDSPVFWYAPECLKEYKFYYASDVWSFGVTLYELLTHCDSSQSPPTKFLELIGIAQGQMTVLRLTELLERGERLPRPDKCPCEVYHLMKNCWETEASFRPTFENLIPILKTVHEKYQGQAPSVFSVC
UniProt Q6PHR2: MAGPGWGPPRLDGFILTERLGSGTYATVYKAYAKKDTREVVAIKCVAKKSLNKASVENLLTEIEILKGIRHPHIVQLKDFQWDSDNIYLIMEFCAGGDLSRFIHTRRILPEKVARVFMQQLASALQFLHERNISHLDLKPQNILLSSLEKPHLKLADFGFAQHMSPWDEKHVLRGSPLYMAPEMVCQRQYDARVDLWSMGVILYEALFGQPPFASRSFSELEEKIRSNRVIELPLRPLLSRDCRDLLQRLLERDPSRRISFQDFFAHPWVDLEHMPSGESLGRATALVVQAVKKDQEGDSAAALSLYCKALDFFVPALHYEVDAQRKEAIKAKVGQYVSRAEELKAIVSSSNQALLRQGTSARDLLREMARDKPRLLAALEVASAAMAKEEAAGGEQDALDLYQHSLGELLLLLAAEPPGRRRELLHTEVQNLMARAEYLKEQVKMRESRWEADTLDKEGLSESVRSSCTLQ

Legend:
Settings in all cases: K562; 2-18 h
RET = RET (UniProt P07949); experiment: kinase-Nluc reporter destabilization hit call (1 = scored as downregulated) (binary); higher = compound decreases kinase abundance
[1] = molecular target: RET_M918T (clone: RET_mut) (UniProt P07949); experiment: as above
RIOK1 = RIOK1 (UniProt Q9BRS2); experiment: as above
RIPK1 = RIPK1 (UniProt Q13546); experiment: as above
RIPK2 = RIPK2 (UniProt O43353); experiment: as above
ROR2 = ROR2 (UniProt Q01974); experiment: as above
RPS6KA1 = RPS6KA1 (UniProt Q15418); experiment: as above
SPHK1 = SPHK1 (UniProt Q9NYA1); experiment: as above
SRC = SRC (UniProt P12931); experiment: as above
STK24 = STK24 (UniProt Q9Y6E0); experiment: as above
STK38 = STK38 (UniProt Q15208); experiment: as above
SYK = SYK (UniProt P43405); experiment: as above
TEC = TEC (UniProt P42680); experiment: as above
TYK2 = TYK2 (UniProt P29597); experiment: as above
ULK3 = ULK3 (UniProt Q6PHR2); experiment: as above
YES1 = YES1 (UniProt P07947); experiment: as above
ZAK = ZAK (UniProt Q9NYL2); experiment: as above
ZAP70 = ZAP70 (UniProt P43403); experiment: as above
ABL1 = ABL1 (UniProt P00519); experiment: number of time points (of 5) at which kinase-Nluc abundance scored as decreased, DMSO-normalised (count); higher = more persistent destabilization
AKT1 = AKT1 (UniProt P31749); experiment: as above

CN1CCN(c2ccc(Nc3cc(-c4cccc(-n5ccc6cc(C7CC7)cc(F)c6c5=O)c4CO)cn(C)c3=O)nc2)CC1 (2.5 µM)
0: number of time points (ABL1) | number of time points (AKT1)
inactive: kinase-Nluc reporter destabilization hit call (RET) 0 | kinase-Nluc reporter destabilization hit call [1] 0 | kinase-Nluc reporter destabilization hit call (RIOK1) 0 | kinase-Nluc reporter destabilization hit call (RIPK1) 0 | kinase-Nluc reporter destabilization hit call (RIPK2) 0 | kinase-Nluc reporter destabilization hit call (ROR2) 0 | kinase-Nluc reporter destabilization hit call (RPS6KA1) 0 | kinase-Nluc reporter destabilization hit call (SPHK1) 0 | kinase-Nluc reporter destabilization hit call (SRC) 0 | kinase-Nluc reporter destabilization hit call (STK24) 0 | kinase-Nluc reporter destabilization hit call (STK38) 0 | kinase-Nluc reporter destabilization hit call (SYK) 0 | kinase-Nluc reporter destabilization hit call (TEC) 0 | kinase-Nluc reporter destabilization hit call (TYK2) 0 | kinase-Nluc reporter destabilization hit call (ULK3) 0 | kinase-Nluc reporter destabilization hit call (YES1) 0 | kinase-Nluc reporter destabilization hit call (ZAK) 0 | kinase-Nluc reporter destabilization hit call (ZAP70) 0

Cc1c[nH]c(/C=C2\C(=O)Nc3ccccc32)c1CCC(=O)O (10 µM)
0: number of time points (ABL1) | number of time points (AKT1)
inactive: kinase-Nluc reporter destabilization hit call (RET) 0 | kinase-Nluc reporter destabilization hit call [1] 0 | kinase-Nluc reporter destabilization hit call (RIOK1) 0 | kinase-Nluc reporter destabilization hit call (RIPK1) 0 | kinase-Nluc reporter destabilization hit call (RIPK2) 0 | kinase-Nluc reporter destabilization hit call (ROR2) 0 | kinase-Nluc reporter destabilization hit call (RPS6KA1) 0 | kinase-Nluc reporter destabilization hit call (SPHK1) 0 | kinase-Nluc reporter destabilization hit call (SRC) 0 | kinase-Nluc reporter destabilization hit call (STK24) 0 | kinase-Nluc reporter destabilization hit call (STK38) 0 | kinase-Nluc reporter destabilization hit call (SYK) 0 | kinase-Nluc reporter destabilization hit call (TEC) 0 | kinase-Nluc reporter destabilization hit call (TYK2) 0 | kinase-Nluc reporter destabilization hit call (ULK3) 0 | kinase-Nluc reporter destabilization hit call (YES1) 0 | kinase-Nluc reporter destabilization hit call (ZAK) 0 | kinase-Nluc reporter destabilization hit call (ZAP70) 0

CCn1cc(-c2ccnc3[nH]c(-c4cccc(CN(C)C)c4)cc23)c(-c2ccc(NC(=O)N(C)C)cc2)n1 (2.5 µM)
inactive: kinase-Nluc reporter destabilization hit call (RET) 0 | kinase-Nluc reporter destabilization hit call [1] 0 | kinase-Nluc reporter destabilization hit call (RIOK1) 0 | kinase-Nluc reporter destabilization hit call (RIPK1) 0 | kinase-Nluc reporter destabilization hit call (RIPK2) 0 | kinase-Nluc reporter destabilization hit call (ROR2) 0 | kinase-Nluc reporter destabilization hit call (RPS6KA1) 0 | kinase-Nluc reporter destabilization hit call (SPHK1) 0 | kinase-Nluc reporter destabilization hit call (SRC) 0 | kinase-Nluc reporter destabilization hit call (STK24) 0 | kinase-Nluc reporter destabilization hit call (STK38) 0 | kinase-Nluc reporter destabilization hit call (SYK) 0 | kinase-Nluc reporter destabilization hit call (TEC) 0 | kinase-Nluc reporter destabilization hit call (TYK2) 0 | kinase-Nluc reporter destabilization hit call (ULK3) 0 | kinase-Nluc reporter destabilization hit call (YES1) 0 | kinase-Nluc reporter destabilization hit call (ZAK) 0 | kinase-Nluc reporter destabilization hit call (ZAP70) 0
0: number of time points (ABL1) | number of time points (AKT1)

CC(C)c1cnn2c(NCc3ccccc3)cc(NC[C@H]3CCNC[C@@H]3O)nc12 [Samuraciclib (hydrochloride)] (10 µM)
0: number of time points (ABL1) | number of time points (AKT1)
inactive: kinase-Nluc reporter destabilization hit call (RET) 0 | kinase-Nluc reporter destabilization hit call [1] 0 | kinase-Nluc reporter destabilization hit call (RIOK1) 0 | kinase-Nluc reporter destabilization hit call (RIPK1) 0 | kinase-Nluc reporter destabilization hit call (RIPK2) 0 | kinase-Nluc reporter destabilization hit call (ROR2) 0 | kinase-Nluc reporter destabilization hit call (RPS6KA1) 0 | kinase-Nluc reporter destabilization hit call (SPHK1) 0 | kinase-Nluc reporter destabilization hit call (SRC) 0 | kinase-Nluc reporter destabilization hit call (STK24) 0 | kinase-Nluc reporter destabilization hit call (STK38) 0 | kinase-Nluc reporter destabilization hit call (SYK) 0 | kinase-Nluc reporter destabilization hit call (TEC) 0 | kinase-Nluc reporter destabilization hit call (TYK2) 0 | kinase-Nluc reporter destabilization hit call (ULK3) 0 | kinase-Nluc reporter destabilization hit call (YES1) 0 | kinase-Nluc reporter destabilization hit call (ZAK) 0 | kinase-Nluc reporter destabilization hit call (ZAP70) 0

Cc1c(NC(=O)c2cc3c(s2)CCCC3)cccc1-c1cn(C)c(=O)c(Nc2ccc([C@@H]3C(=O)N(C)CCN3C)cc2)n1 (10 µM)
0: number of time points (ABL1) | number of time points (AKT1)
inactive: kinase-Nluc reporter destabilization hit call (RET) 0 | kinase-Nluc reporter destabilization hit call [1] 0 | kinase-Nluc reporter destabilization hit call (RIOK1) 0 | kinase-Nluc reporter destabilization hit call (RIPK1) 0 | kinase-Nluc reporter destabilization hit call (RIPK2) 0 | kinase-Nluc reporter destabilization hit call (ROR2) 0 | kinase-Nluc reporter destabilization hit call (RPS6KA1) 0 | kinase-Nluc reporter destabilization hit call (SPHK1) 0 | kinase-Nluc reporter destabilization hit call (SRC) 0 | kinase-Nluc reporter destabilization hit call (STK24) 0 | kinase-Nluc reporter destabilization hit call (STK38) 0 | kinase-Nluc reporter destabilization hit call (SYK) 0 | kinase-Nluc reporter destabilization hit call (TEC) 0 | kinase-Nluc reporter destabilization hit call (TYK2) 0 | kinase-Nluc reporter destabilization hit call (ULK3) 0 | kinase-Nluc reporter destabilization hit call (YES1) 0 | kinase-Nluc reporter destabilization hit call (ZAK) 0 | kinase-Nluc reporter destabilization hit call (ZAP70) 0

N#C/C(=C\c1ccc(O)c(O)c1)C(=O)NCc1ccccc1 (10 µM)
inactive: kinase-Nluc reporter destabilization hit call (RET) 0 | kinase-Nluc reporter destabilization hit call [1] 0 | kinase-Nluc reporter destabilization hit call (RIOK1) 0 | kinase-Nluc reporter destabilization hit call (RIPK1) 0 | kinase-Nluc reporter destabilization hit call (RIPK2) 0 | kinase-Nluc reporter destabilization hit call (ROR2) 0 | kinase-Nluc reporter destabilization hit call (RPS6KA1) 0 | kinase-Nluc reporter destabilization hit call (SPHK1) 0 | kinase-Nluc reporter destabilization hit call (SRC) 0 | kinase-Nluc reporter destabilization hit call (STK24) 0 | kinase-Nluc reporter destabilization hit call (STK38) 0 | kinase-Nluc reporter destabilization hit call (SYK) 0 | kinase-Nluc reporter destabilization hit call (TEC) 0 | kinase-Nluc reporter destabilization hit call (TYK2) 0 | kinase-Nluc reporter destabilization hit call (ULK3) 0 | kinase-Nluc reporter destabilization hit call (YES1) 0 | kinase-Nluc reporter destabilization hit call (ZAK) 0 | kinase-Nluc reporter destabilization hit call (ZAP70) 0
0: number of time points (ABL1) | number of time points (AKT1)

COc1cc(N2CCC(N)CC2)ccc1Nc1ncc(Cl)c(-c2c[nH]c3ccccc23)n1 (2.5 µM)
inactive: kinase-Nluc reporter destabilization hit call (RET) 0 | kinase-Nluc reporter destabilization hit call [1] 0 | kinase-Nluc reporter destabilization hit call (RIOK1) 0 | kinase-Nluc reporter destabilization hit call (RIPK1) 0 | kinase-Nluc reporter destabilization hit call (RIPK2) 0 | kinase-Nluc reporter destabilization hit call (ROR2) 0 | kinase-Nluc reporter destabilization hit call (RPS6KA1) 0 | kinase-Nluc reporter destabilization hit call (SPHK1) 0 | kinase-Nluc reporter destabilization hit call (SRC) 0 | kinase-Nluc reporter destabilization hit call (STK24) 0 | kinase-Nluc reporter destabilization hit call (STK38) 0 | kinase-Nluc reporter destabilization hit call (SYK) 0 | kinase-Nluc reporter destabilization hit call (TEC) 0 | kinase-Nluc reporter destabilization hit call (TYK2) 0 | kinase-Nluc reporter destabilization hit call (ULK3) 0 | kinase-Nluc reporter destabilization hit call (YES1) 0 | kinase-Nluc reporter destabilization hit call (ZAK) 0 | kinase-Nluc reporter destabilization hit call (ZAP70) 0
0: number of time points (ABL1) | number of time points (AKT1)

CCN(CC)CCCCNc1ncc2cc(-c3cc(OC)cc(OC)c3)c(NC(=O)NC(C)(C)C)nc2n1 (10 µM)
0: number of time points (ABL1) | number of time points (AKT1)
inactive: kinase-Nluc reporter destabilization hit call (RET) 0 | kinase-Nluc reporter destabilization hit call [1] 0 | kinase-Nluc reporter destabilization hit call (RIOK1) 0 | kinase-Nluc reporter destabilization hit call (RIPK1) 0 | kinase-Nluc reporter destabilization hit call (RIPK2) 0 | kinase-Nluc reporter destabilization hit call (ROR2) 0 | kinase-Nluc reporter destabilization hit call (RPS6KA1) 0 | kinase-Nluc reporter destabilization hit call (SPHK1) 0 | kinase-Nluc reporter destabilization hit call (SRC) 0 | kinase-Nluc reporter destabilization hit call (STK24) 0 | kinase-Nluc reporter destabilization hit call (STK38) 0 | kinase-Nluc reporter destabilization hit call (SYK) 0 | kinase-Nluc reporter destabilization hit call (TEC) 0 | kinase-Nluc reporter destabilization hit call (TYK2) 0 | kinase-Nluc reporter destabilization hit call (ULK3) 0 | kinase-Nluc reporter destabilization hit call (YES1) 0 | kinase-Nluc reporter destabilization hit call (ZAK) 0 | kinase-Nluc reporter destabilization hit call (ZAP70) 0

Nc1nc(OCC2CCCCC2)c2[nH]cnc2n1 (10 µM)
inactive: kinase-Nluc reporter destabilization hit call (RET) 0 | kinase-Nluc reporter destabilization hit call [1] 0 | kinase-Nluc reporter destabilization hit call (RIOK1) 0 | kinase-Nluc reporter destabilization hit call (RIPK1) 0 | kinase-Nluc reporter destabilization hit call (RIPK2) 0 | kinase-Nluc reporter destabilization hit call (ROR2) 0 | kinase-Nluc reporter destabilization hit call (RPS6KA1) 0 | kinase-Nluc reporter destabilization hit call (SPHK1) 0 | kinase-Nluc reporter destabilization hit call (SRC) 0 | kinase-Nluc reporter destabilization hit call (STK24) 0 | kinase-Nluc reporter destabilization hit call (STK38) 0 | kinase-Nluc reporter destabilization hit call (SYK) 0 | kinase-Nluc reporter destabilization hit call (TEC) 0 | kinase-Nluc reporter destabilization hit call (TYK2) 0 | kinase-Nluc reporter destabilization hit call (ULK3) 0 | kinase-Nluc reporter destabilization hit call (YES1) 0 | kinase-Nluc reporter destabilization hit call (ZAK) 0 | kinase-Nluc reporter destabilization hit call (ZAP70) 0
0: number of time points (ABL1) | number of time points (AKT1)
